Results are given in words; binding and its absence hold for the method and conditions named. Binding seen in cells or lysates may run through a third protein. These calls come from enrichment with a bait or labelling near it, and not all partners need be listed. A no says only that the protein was not detected with the bait.
B1: peroxiredoxin-4 (PRDX4), endogenous in HepG2 cells (protein, UniProt Q13162 38-271)
chain: WETEERPRTREEECHFYAGGQVYPGEASRVSVADHSLHLSKAKISKPAPYWEGTAVIDGEFKELKLTDYRGKYLVFFFYPLDFTFVCPTEIIAFGDRLEEFRSINTEVVACSVDSQFTHLAWINTPRRQGGLGPIRIPLLSDLTHQISKDYGVYLEDSGHTLRGLFIIDDKGILRQITLNDLPVGRSVDETLRLVQAFQYTDKHGEVCPAGWKPGSETIIPDPAGKLKYFDKLN

Amino acid sequences for entries named in this document (tags omitted). A change or cut given only in a name is not applied to a line headed by its entry. Residues count along the entry.
UniProt P03165: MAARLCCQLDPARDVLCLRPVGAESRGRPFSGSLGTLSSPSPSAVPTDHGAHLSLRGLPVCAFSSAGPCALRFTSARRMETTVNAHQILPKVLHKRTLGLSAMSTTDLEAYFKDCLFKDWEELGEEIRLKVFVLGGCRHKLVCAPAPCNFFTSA
UniProt Q16531: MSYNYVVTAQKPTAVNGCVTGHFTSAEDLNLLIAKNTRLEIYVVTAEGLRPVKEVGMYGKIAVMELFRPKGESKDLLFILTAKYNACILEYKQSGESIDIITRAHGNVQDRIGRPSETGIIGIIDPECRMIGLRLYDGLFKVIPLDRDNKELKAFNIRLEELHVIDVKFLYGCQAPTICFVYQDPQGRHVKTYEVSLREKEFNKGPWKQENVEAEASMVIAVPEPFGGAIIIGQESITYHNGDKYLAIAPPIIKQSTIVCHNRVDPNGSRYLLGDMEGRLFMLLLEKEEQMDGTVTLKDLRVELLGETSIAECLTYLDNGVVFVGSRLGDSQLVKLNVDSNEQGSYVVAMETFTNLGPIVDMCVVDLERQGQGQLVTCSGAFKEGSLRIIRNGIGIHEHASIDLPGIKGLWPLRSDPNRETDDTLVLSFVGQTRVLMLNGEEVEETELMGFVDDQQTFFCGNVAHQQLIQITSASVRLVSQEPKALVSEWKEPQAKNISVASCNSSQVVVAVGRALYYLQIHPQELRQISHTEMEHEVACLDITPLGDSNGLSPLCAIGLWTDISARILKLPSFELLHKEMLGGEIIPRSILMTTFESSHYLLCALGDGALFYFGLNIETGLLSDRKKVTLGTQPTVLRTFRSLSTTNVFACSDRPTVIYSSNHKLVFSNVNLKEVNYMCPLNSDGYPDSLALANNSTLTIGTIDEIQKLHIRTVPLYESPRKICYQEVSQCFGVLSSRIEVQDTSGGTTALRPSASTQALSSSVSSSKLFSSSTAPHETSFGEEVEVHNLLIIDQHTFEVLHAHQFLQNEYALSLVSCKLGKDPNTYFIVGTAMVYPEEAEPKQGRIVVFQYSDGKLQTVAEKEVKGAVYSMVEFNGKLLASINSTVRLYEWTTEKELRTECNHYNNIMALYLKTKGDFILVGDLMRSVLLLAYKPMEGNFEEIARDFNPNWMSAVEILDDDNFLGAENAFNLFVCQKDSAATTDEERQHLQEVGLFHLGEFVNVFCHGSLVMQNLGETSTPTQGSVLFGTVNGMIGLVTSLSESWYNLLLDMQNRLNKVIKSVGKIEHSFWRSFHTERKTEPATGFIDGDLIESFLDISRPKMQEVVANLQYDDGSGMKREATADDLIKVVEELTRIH
UniProt Q13526: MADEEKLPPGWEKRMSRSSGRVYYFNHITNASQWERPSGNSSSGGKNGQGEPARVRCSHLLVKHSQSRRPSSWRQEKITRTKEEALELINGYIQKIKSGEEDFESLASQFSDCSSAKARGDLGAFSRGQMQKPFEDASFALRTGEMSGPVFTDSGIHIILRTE
UniProt P10809, residues 27-573: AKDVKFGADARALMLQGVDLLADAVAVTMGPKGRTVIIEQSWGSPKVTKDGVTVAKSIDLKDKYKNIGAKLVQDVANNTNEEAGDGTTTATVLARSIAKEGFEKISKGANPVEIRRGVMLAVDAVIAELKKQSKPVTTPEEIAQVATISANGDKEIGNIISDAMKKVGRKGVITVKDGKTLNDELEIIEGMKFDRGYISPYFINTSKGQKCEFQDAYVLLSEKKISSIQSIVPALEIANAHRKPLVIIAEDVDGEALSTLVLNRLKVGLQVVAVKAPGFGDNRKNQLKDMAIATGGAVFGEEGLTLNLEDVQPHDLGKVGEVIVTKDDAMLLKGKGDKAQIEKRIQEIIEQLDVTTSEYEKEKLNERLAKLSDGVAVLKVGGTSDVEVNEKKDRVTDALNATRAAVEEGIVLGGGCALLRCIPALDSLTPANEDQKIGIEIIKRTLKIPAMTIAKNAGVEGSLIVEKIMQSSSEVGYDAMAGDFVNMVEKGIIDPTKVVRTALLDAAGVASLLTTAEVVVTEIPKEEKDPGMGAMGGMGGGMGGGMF

biological target: GST-HBx-D5 (truncated HBx containing N-terminal amino acids 1-50, fused to GST) (hepatitis B virus) (UniProt P03165); assay: affinity purification with mass spectrometry; GST-HBx or GST-HBx-D5 on glutathione-Sepharose beads incubated with HepG2 cell lysate overnight at 4 °C, GST as negative control; eluates of three parallel experiments pooled, SDS-PAGE, silver staining, in-gel digestion, MS/MS; only the target purified

Molecule | binding
DNA damage-binding protein 1 (DDB1), endogenous in HepG2 cells (from UniProt Q16531 1-1140) | no binding
Pin1 (peptidyl-prolyl cis-trans isomerase), endogenous in HepG2 cells (from UniProt Q13526 1-163) | no binding
mitochondrial 60 kDa heat shock protein (HSPD1), endogenous in HepG2 cells (from UniProt P10809 27-573) | no binding
B1 | no binding
